Results deposited as PubChem BioAssay AID1259254 (NCATS, 2017).
The whole screen tested about 59,000 reagents; shown is a part drawn at random. Over the whole deposit, about 1,550 (2.6%) got an active call. 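G2 share is only a proxy for re-replication; each gene was hit by three separate siRNAs, and active genes were retested.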 Entries without a mark were called inactive. The numbers tell different reagents against one gene apart. Further read-outs or replicates are left out here. Not stated in the record: the amount of reagent.

- Purpose: 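Finding genes that stop cells copying their DNA twice in one cycle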 (primary screen)
- System: human HCT116 colorectal cancer cells
- Knock-down reagent: single siRNA against human genes
- Duration: 3 days
- Measured: 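Nuclei stained with Hoechst and imaged; cell-cycle phase assigned by DNA content; G2 share scaled per plate, non-targeting siRNA 0%, GMNN siRNA 100%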
- Direction: G2 robust z-score: higher = more G2 cells, more excess DNA replication
- Hit rule: 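Active siRNAs have a G2 robust z of 5 or more median absolute deviations over the median, which in these data means about 38% or higher of GMNN control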

With knock-down of PQBP1 #1, the record shows G2 robust z-score -0.424.
For PQBP1 #2 the deposit lists G2 robust z-score 0.555.
PQBP1 #3 showed G2 robust z-score -0.196.
With knock-down of RPS27A #1 the results were G2 robust z-score 3.18.
With knock-down of RPS27A #2 the results were G2 robust z-score 0.758.
RPS27A #3 scored G2 robust z-score 0.7.
After knock-down of LINC01085 #1 the results were G2 robust z-score -0.664.
After knock-down of LINC01085 #2, the screen gave G2 robust z-score 1.4.
Against LINC01085 #3 the deposit lists G2 robust z-score 0.736.
DOK2 #1 showed G2 robust z-score -0.313.
Silencing of DOK2 #2 resulted in: G2 robust z-score -1.24.
Against DOK2 #3, the entry reads G2 robust z-score 1.68.
Against KRT7 #1 the deposit lists G2 robust z-score 3.21.
With knock-down of KRT7 #2, the screen gave G2 robust z-score 0.541.
For KRT7 #3, the entry reads G2 robust z-score -0.659.

2 entries from above, ordered by “G2 robust z-score”, low to high.
KRT7 #3: G2 robust z-score = -0.659
KRT7 #2: G2 robust z-score = 0.541

The results go on.
Depletion of TAF4B #1 came out at: G2 robust z-score -1.3.
Against TAF4B #2, the entry reads G2 robust z-score 0.178.
For TAF4B #3, the entry reads G2 robust z-score 2.17.
With knock-down of KPNA6 #1, the screen gave G2 robust z-score -1.06.
For KPNA6 #2, the entry reads G2 robust z-score -0.115.
For KPNA6 #3, the values are G2 robust z-score 4.23.
TLR10 #1 gave G2 robust z-score -0.135.
Against TLR10 #2, the entry reads G2 robust z-score -0.104.
Against TLR10 #3, the entry reads G2 robust z-score -1.11.
